# PubChem BioAssay AID504810 (National Center for Advancing Translational Sciences (NCATS), 2011)
# Protein sequences, listed by entry. Tags and fused reporters are not part of them.
# UniProt P16473, whole entry, looked up: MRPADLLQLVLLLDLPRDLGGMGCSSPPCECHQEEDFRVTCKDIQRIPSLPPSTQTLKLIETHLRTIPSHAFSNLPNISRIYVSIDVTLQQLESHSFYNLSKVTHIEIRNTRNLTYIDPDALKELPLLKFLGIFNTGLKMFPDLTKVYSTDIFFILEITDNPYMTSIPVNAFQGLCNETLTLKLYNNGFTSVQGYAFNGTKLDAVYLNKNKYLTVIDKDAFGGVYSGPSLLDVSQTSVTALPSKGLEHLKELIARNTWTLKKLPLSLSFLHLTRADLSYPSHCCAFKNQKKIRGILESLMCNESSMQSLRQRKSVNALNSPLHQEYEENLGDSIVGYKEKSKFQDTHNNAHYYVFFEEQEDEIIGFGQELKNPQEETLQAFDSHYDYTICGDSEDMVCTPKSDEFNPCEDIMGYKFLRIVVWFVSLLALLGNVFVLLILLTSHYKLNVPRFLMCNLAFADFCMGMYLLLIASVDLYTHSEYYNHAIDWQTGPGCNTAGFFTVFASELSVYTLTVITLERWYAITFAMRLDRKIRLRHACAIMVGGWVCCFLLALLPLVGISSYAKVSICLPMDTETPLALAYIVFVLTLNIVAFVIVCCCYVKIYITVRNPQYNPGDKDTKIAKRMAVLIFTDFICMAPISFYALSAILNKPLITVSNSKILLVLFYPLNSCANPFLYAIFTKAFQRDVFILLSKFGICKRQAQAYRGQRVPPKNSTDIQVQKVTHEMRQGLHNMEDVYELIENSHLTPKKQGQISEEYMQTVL
# Hit rate of the full screen: of about 330,000 compounds, about 670 (0.2%) were called active. The shares of active, inactive and inconclusive entries below differ from those in the screen.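 Rule for the calls: active = activity change below a set negative limit, meaning inhibition stronger than a set level (cut at about -70% in these data); inconclusive = activity change between two set negative limits; inactive = the rest.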
# Target: Thyrotropin receptor (Homo sapiens) (UniProt P16473)
# Assay: Antagonists of the Thyroid Stimulating Hormone Receptor: HTS campaign
# Conditions: TSHR-expressing cells, TSH-stimulated cAMP HTRF, 2 h; at 11.5 µM; active compounds read low
# Method in brief: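 Inhibition of cAMP made by TSHR-expressing cells under TSH stimulation (4nM final, EC80; 2 h, 37 deg C) is quantified with a one-step lysis HTRF kit, anti-cAMP cryptate versus cAMP-d2.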
# % is set by controls: 0 for no effect and ±100 for the full control effect.
row,SMILES,"activity change, negative = inhibition"
1,O=C(N/N=C/c1cc(Br)c(O)c(Br)c1)c1cc2c(ccc3ccccc32)o1,inactive: -8.78%
2,O=C(c1ccccc1)c1ccc(N2CCN(C(=O)c3cccc(F)c3F)CC2)c(F)c1,inconclusive: -61.9%
3,Cn1nnc2c[n+](CC(=O)c3ccc(Cl)cc3)cc(Br)c21,inconclusive: -67.9%
4,CC(C)(C)c1cc(C(c2cccnc2)N2CCN(CCO)CC2)cc(C(C)(C)C)c1O (centres undefined),inconclusive: -53%
5,CC(C)S(=O)(=O)C1=NSC2=NC(=O)/C(=C\c3ccc(-c4ccccc4)o3)C(=N)N21,active: -85.6%
6,CCc1ccc(NC(=O)C2CCN(S(=O)(=O)c3ccc4c(c3)CC(C)N4C(C)=O)CC2)cc1 (centres undefined),inconclusive: -53.4%
7,COc1ccccc1N1C(=O)c2cccc3c(Cl)ccc(c23)C1=O,active: -98.1%
8,CCOC(=O)/C(C#N)=C\c1cc(C)n(-c2ccccc2)c1C,inconclusive: -56.5%
9,COC(=O)C1=C(C)N(C(C)C)C(=O)C1(NC(=O)C1CCCCC1)C(F)(F)F (centres undefined),inconclusive: -51.9%
10,C=CCn1c(Sc2ncc([N+](=O)[O-])s2)n[nH]c1=O,inconclusive: -63.1%
11,C1=C(CCNc2ncnc3c2[nH]c2ccccc23)CCCC1,inconclusive: -68.8%
12,COc1ccc(-c2sc3cc4c(cc3c2C#CCO)OCO4)cc1,inconclusive: -51.8%
13,COC(=O)/C=C1\S/C(=N/N=C/c2ccc(Cl)cc2)NC1=O,inactive: -1.14%
14,Cc1cccc(OCC(=O)Nc2nc3ccc([N+](=O)[O-])cc3s2)c1C,active: -75.9%
15,CCCOC(=O)c1cc(NC(=O)/C=C/c2ccccc2)ccc1O,inconclusive: -52.7%
16,COc1cc(/C=N/NC(=O)CCNC(=O)c2ccccc2Cl)ccc1O,inactive: -8.36%
17,O=C(c1ccco1)N1CCN(c2nc(C(F)(F)F)nc3c2nnn3Cc2ccccc2)CC1,inconclusive: -67%
18,COc1ccc(NC(=S)Nc2ccc3nc(C)c(C)nc3c2)cc1,inactive: -7.67%
19,O=C(Nc1ccc([N+](=O)[O-])cc1)Nc1nc(-c2ccc(Cl)s2)cs1,inconclusive: -61.4%
20,O=C(Nc1ccc(Cl)cc1)Nc1ccc(Cl)c(Cl)c1,active: -73.8%
21,CC1=C/C(=N\OS(=O)(=O)c2ccccc2)C=CC1=O,inconclusive: -58.8%
22,O=C(NCc1ccccc1)c1sc(=S)n2c1[nH]c(=O)c1ccccc12,active: -78.7%
23,COc1ccc(OC)c(-c2csc(NC(=O)c3ccc(F)cc3)n2)c1,inconclusive: -52.6%

row,SMILES,"activity change, negative = inhibition"
1,CN(c1ccc(C(=O)NCCSCc2ccc(Cl)cc2)cc1)S(=O)(=O)c1ccccc1,inconclusive: -57.8%
2,CCOc1ccc(C2NC(=O)c3ccccc3O2)cc1OC (centres undefined),inconclusive: -54%
3,Cc1ccc(NC(=O)Nc2ccc3c(c2)OCO3)c(OC(F)F)c1,inconclusive: -54.9%
4,CCOc1ccc2nc(N3C(=O)CNC3=S)sc2c1,inactive: -0.262%
5,Cc1cc(C(=O)NC2CCCc3c2cnn3-c2cccc(C)c2C)c(C)o1 (centres undefined),active: -79.3%
6,O=C(NC1CC1)C1CC(=O)N(c2ccc(F)cc2)C1 (centres undefined),inconclusive: -57.5%
7,CCCCCc1c2c(cc(O)c1C(=O)O)OC(=O)c1c(cc(OC)cc1C(=O)CCCC)O2,inconclusive: -53.4%
8,NC(=O)c1ccc2c(c1)S(=O)(=O)c1ccccc1C2=O,inactive: 20.4%
9,CC1CCN(S(=O)(=O)c2nnc(NC(=O)c3cccc([N+](=O)[O-])c3)s2)CC1,inconclusive: -63.6%
10,CCc1ccccc1OC[C@@H](O)CN[C@H]1CCCc2ccccc21,inactive: 4.62%
11,CCOc1ccc(-c2csc(NC(=O)CSC3=NC(=O)CN3C(C)=O)n2)c2ccccc12,inconclusive: -53.4%
12,O=C(O)/C=C/C(=O)Nc1ccc(C2(c3ccc(NC(=O)/C=C/C(=O)O)cc3)c3ccccc3-c3ccccc32)cc1,active: -85.9%
13,CC(=O)Nc1sc(C)c(C)c1C(=O)OCC(=O)NCc1ccc(F)cc1,inactive: 1.83%
14,COc1ccc(NS(=O)(=O)c2cn(C)cn2)cc1Cl,active: -142%
15,Cc1ccc(O)c(Sc2cc(C)ccc2O)c1,inactive: 4.17%
16,O=C(CCS(=O)(=O)c1ccc(Br)cc1)NCc1ccc(F)cc1,active: -126%
17,CCc1noc(C)c1C(=O)OCC(=O)Nc1nc(-c2ccc(F)c(F)c2)cs1,inconclusive: -64.4%
18,COc1ccc(-c2cn(CCCOCc3ccccc3)nn2)cc1,inconclusive: -55.2%
19,O=C(c1ccco1)N1CCN(c2nc(C3CC3)nc3c2nnn3Cc2ccccc2Cl)CC1,inconclusive: -62.2%
20,Cc1nc2cc(-c3sccc3-n3cccc3)nn2c(C)c1C,inconclusive: -52.9%
21,O=C(NCc1ccc(Cl)cc1)Nc1ccc(F)cc1,inactive: -44.9%
22,COc1ccc(NC(=O)/C(Cl)=C(/Cl)S(=O)(=O)Cc2ccccc2)cn1,inconclusive: -64.9%
23,O=c1[nH]cccc1-c1nc2ccccc2n1Cc1ccc(F)cc1,inconclusive: -53.2%

row,SMILES,"activity change, negative = inhibition"
1,O=C(O)c1cccc(-n2sc3ccccc3c2=O)c1,inconclusive: -55%
2,Clc1cccc(-c2nnc3n2CCCCC3)c1,inactive: 0.726%
3,Cc1ccc(C)c(Oc2cc(NC(=O)CCCn3nc(C)c([N+](=O)[O-])c3C)cc([N+](=O)[O-])c2)c1,inconclusive: -68.3%
4,Brc1ccc2cccnc2c1,inactive: 4.88%
5,CCOc1ccc2nc(NC(=O)CS(=O)(=O)c3ccccc3)sc2c1,inconclusive: -51.5%
6,COc1ccc(S(=O)(=O)Nc2ccccc2C(=O)Nc2nc(-c3ccc(F)cc3)cs2)cc1OC,active: -88.3%
7,Cc1ccc(NC(=O)C[n+]2cc(-c3ccccc3)n3c2CCC3)cc1,inactive: -1.36%
8,CC(=O)Nc1ccc(S(=O)(=O)N2CCN=C2SCc2cccnc2)cc1,inactive: -0.273%
9,COCCC1CCCCN1C(=O)c1cc(COc2ccc(C)nc2)on1 (centres undefined),inconclusive: -50.6%
10,CCOc1cc(N2CCOCC2)c(OCC)cc1NC(=O)c1cc(S(=O)(=O)N2CCOCC2)ccc1Cl,inconclusive: -62.3%
11,CCCC[C@@H]1C=C(C(=O)O)[C@H](c2ccc(CC)cc2)N1S(=O)(=O)c1ccc(C)cc1,inactive: -1.65%
12,C=CCSc1nsc(NC(=O)Nc2cccc(C(C)=O)c2)n1,inconclusive: -63.8%
13,CN(C)c1ccc(/C=C/c2ccc3ccccc3[n+]2C)cc1,inconclusive: -50.6%
14,N/C(=N\OC(=O)Cc1ccccc1)c1cccnc1,inactive: -33.3%
15,Clc1ccc(CCNc2ncnc3nc[nH]c23)cc1,inconclusive: -54.3%
16,Cc1ccc2nnn(Cc3cccc(C(C)(C)C)c3O)c2c1,inconclusive: -63.3%
17,COc1ccc2[nH]cc(CCNC(=S)NC3CCCC3)c2c1,inactive: -3.39%
18,CCn1c(Cl)c(C=O)s/c1=N\S(=O)(=O)c1ccccc1,active: -98%
19,NS(=O)(=O)c1ccc(CNC(=O)CCS(=O)(=O)Cc2ccccc2)cc1,active: -79.2%
20,Clc1ccc2c(c1)-c1nnc(Br)n1-c1ccccc1S2,inconclusive: -61.4%
21,Cc1cc2ccccn2c1C(=O)c1ccncc1,inactive: -2.67%
22,FC(F)Sc1ccc(NC(=S)NC(c2ccccc2)c2ccccc2)cc1,inconclusive: -63.3%
23,CCN(CC)Cc1c(C(=O)N/N=C/c2cccc(OCc3ccc(F)cc3)c2)nnn1-c1nonc1N,inconclusive: -68.8%

row,SMILES,"activity change, negative = inhibition"
1,CCOC(=O)c1c(NC(=O)/C=C/C(=O)O)sc(C)c1-c1ccc(C(C)(C)C)cc1,inconclusive: -57.8%
2,CCN(CC)S(=O)(=O)c1ccc(NC2CCCc3ccccc32)nc1 (centres undefined),inconclusive: -53.9%
3,N=C1CCC(=N)c2c1c(O)c1ccccc1c2O,inactive: 3.46%
4,Cc1ccc(CS(=O)(=O)c2ncc(Cl)c(C(=O)Nc3ccc(OC(F)F)cc3)n2)cc1,inconclusive: -69%
5,O=C(Nc1nc(-c2ccc(S(=O)(=O)N3CCCC3)cc2)cs1)c1cccs1,inconclusive: -59.8%
6,COc1ccc(-c2csc(NC(=O)CSc3nc(SC)ns3)n2)cc1,active: -74%
7,O=C(Cc1ccccc1)Nc1cccc(N2C(=O)C=CC2=O)c1,active: -71.3%
8,COc1ccccc1N(C(=O)c1snc(C(N)=O)c1N)C(C(=O)NC1CCCC1)c1ccco1 (centres undefined),inconclusive: -58.6%
9,COC(=O)c1ccc(NC(=O)c2ccccc2NS(=O)(=O)c2ccccc2)cc1,inconclusive: -53.9%
10,CCOC(=O)c1ccc(NC(=S)N(CCN2CCCCCC2)Cc2ccco2)cc1,inactive: 12.9%
11,O=C(O)c1ccc(Cl)cc1Nc1nc2cc(Cl)ccc2o1,inconclusive: -63.4%
12,NC(=O)NC[C@@H]1CC[C@@H](Cc2ccc(-c3ccccc3)cc2)O1,inconclusive: -61.9%
13,COc1cc(NC(=O)CN2C(=O)NC(C)(c3ccc4ccccc4c3)C2=O)c(C)cc1[N+](=O)[O-] (centres undefined),inactive: 12.6%
14,CNc1nc(=S)[nH]c2ccccc12,inactive: 3.36%
15,CCOc1cc(CNCCO)cc(Br)c1OCc1ccc(Cl)cc1Cl,inconclusive: -66.9%
16,c1csc(-c2nnc(Cc3cccc4ccccc34)o2)c1,inconclusive: -52%
17,CN1/C(=C\C(=O)c2oc3ccccc3c2N)C(C)(C)c2ccccc21,inconclusive: -55.4%
18,N#Cc1nccnc1S(=O)(=O)c1cccs1,active: -86.5%
19,O=C(Nc1ccc(C(=O)NCc2ccccc2Cl)cc1)C1=CSCCO1,active: -135%
20,O=C(COC(=O)c1ccccc1NS(=O)(=O)c1cccs1)NCC12CC3CC(CC(C3)C1)C2,inconclusive: -50.9%

# Grouped by structure, those above containing an aryl thioether with sulfur outside any ring (5)
row,SMILES,"activity change, negative = inhibition"
10,C=CCn1c(Sc2ncc([N+](=O)[O-])s2)n[nH]c1=O,inconclusive: -63.1%
15,Cc1ccc(O)c(Sc2cc(C)ccc2O)c1,inactive: 4.17%
12,C=CCSc1nsc(NC(=O)Nc2cccc(C(C)=O)c2)n1,inconclusive: -63.8%
22,FC(F)Sc1ccc(NC(=S)NC(c2ccccc2)c2ccccc2)cc1,inconclusive: -63.3%
6,COc1ccc(-c2csc(NC(=O)CSc3nc(SC)ns3)n2)cc1,active: -74%
